Our source for the binding values is paper PMC6888823.

The chains behind the UniProt entries cited, without tags or fusion partners.
UniProt P37238: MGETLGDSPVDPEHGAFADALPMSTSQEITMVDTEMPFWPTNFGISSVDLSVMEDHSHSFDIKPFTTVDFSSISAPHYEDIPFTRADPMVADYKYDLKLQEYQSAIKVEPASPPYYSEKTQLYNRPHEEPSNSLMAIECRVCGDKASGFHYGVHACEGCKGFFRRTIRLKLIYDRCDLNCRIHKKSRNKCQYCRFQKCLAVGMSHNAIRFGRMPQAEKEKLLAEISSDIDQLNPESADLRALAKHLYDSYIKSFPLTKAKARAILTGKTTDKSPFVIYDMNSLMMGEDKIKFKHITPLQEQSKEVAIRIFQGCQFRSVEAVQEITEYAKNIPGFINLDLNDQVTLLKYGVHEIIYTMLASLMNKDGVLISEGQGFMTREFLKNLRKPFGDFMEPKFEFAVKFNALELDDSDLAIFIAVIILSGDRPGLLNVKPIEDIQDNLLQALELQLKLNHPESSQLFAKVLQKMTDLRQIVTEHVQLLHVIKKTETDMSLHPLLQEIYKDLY

No constants are given. Whether binding was seen depends on the method and setting. Binding seen in cells or lysates may run through a third protein.

In the test the target is T1, Heat shock protein A12A (HSPA12A) (mouse (endogenous in 3T3-L1)) (UniProt Q8K0U4).
T1 sequence: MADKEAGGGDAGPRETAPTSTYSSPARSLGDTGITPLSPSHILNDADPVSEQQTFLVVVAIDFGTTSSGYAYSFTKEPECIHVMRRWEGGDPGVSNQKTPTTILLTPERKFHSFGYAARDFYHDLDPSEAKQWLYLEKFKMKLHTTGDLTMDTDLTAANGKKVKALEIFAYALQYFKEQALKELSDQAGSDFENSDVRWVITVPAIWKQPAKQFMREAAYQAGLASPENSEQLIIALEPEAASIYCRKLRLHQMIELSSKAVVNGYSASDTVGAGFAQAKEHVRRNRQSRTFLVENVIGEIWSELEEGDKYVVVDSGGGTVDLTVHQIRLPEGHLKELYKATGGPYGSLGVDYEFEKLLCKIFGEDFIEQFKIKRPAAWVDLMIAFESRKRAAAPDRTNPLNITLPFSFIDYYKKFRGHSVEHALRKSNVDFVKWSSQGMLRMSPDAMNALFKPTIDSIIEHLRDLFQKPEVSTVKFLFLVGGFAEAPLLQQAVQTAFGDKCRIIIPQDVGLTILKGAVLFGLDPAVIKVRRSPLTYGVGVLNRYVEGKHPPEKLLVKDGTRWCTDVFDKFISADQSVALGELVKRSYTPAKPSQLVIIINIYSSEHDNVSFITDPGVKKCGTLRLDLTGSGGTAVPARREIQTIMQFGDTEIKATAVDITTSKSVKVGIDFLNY
Kind of test: co-IP; 3T3-L1 cells with or without differentiation precipitated with anti-HSPA12A antibody, immunoblot for PPARγ; input as positive control, normal IgG as negative control. On the technique in general: In western blotting, separated proteins are transferred to a membrane and probed.

For the substance “Peroxisome proliferator-activated receptor γ (PPARγ) (from UniProt P37238 1-505)”, the binding entry was “no binding”.
